Reference: PMC12741050
These are yes or no findings as the source states them, for the method shown. Binding seen in cells or lysates may run through a third protein. Some results given as binding are weak or reduced against the parent protein; the word gives no strength. Where a sequence is shown, tags or fusion partners need not be part of it.

Sequences of proteins named here, by UniProt entry; tags and fusion partners are left off.
UniProt P19474: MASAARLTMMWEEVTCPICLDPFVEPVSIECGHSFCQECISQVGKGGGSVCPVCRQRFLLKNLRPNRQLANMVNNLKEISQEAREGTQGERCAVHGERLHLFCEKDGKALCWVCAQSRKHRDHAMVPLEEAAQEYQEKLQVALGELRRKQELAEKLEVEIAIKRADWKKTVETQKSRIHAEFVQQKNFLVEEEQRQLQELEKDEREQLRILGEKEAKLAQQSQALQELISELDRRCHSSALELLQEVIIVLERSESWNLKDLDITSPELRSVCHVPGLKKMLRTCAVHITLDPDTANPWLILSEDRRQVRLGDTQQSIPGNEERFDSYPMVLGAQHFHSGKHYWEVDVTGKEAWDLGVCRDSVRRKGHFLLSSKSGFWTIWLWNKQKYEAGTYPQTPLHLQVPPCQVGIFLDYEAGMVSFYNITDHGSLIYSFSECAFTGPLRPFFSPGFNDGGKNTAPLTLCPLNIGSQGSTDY

Tests used:
[1] = biological target: T1, Myc-SLC25A10 (human SLC25A10 pcDNA3.1-MYC-C) (human) (UniProt Q9UBX3); assay: co-IP; CRC cells transfected with HA-TRIM21 together with Myc-SLC25A10, Flag-INHBA or empty vector; 48 h, MG132 20 μM 4 h; anti-Myc beads, blot with anti-HA
T1 sequence: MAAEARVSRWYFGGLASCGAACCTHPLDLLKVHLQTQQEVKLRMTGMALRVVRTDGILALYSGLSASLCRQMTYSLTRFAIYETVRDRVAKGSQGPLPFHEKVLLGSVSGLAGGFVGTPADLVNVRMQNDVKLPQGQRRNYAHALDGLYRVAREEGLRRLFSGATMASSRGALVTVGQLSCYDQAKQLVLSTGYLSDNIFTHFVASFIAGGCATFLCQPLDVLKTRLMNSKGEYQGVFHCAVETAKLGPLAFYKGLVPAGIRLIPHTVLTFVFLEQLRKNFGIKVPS

[2] = biological target: T2, HA-SLC25A10 (human SLC25A10 pcDNA3.1-HA-C) (human) (UniProt Q9UBX3); assay: co-IP; CRC cell lysates; protein A/G magnetic beads with antibody or anti-Flag / anti-HA magnetic beads, overnight at 4 °C, six washes with lysis buffer, Western blot
T2 sequence: T1 sequence

Substance	binding [1]	binding [2]
HA-TRIM21 (human TRIM21 pcDNA3.1-HA-C) (from UniProt P19474 1-475)	binds	
TRIM21 in CRC cells (no TRIM21 construct named) (from UniProt P19474 1-475)		binds
